According to patent publication US20240052061A1:
No constants are given. Whether binding was seen depends on the method and setting. Some entries that bind do so weakly or less than the wild type.

How the values were obtained:
[1] = target: T1, human ecto-nucleoside triphosphate diphosphohydrolase-3 (NTPDase3) (human) (UniProt O75355); assay: Table 1, Binding Kinetics (Association Rate); flow cytometry on hENTPD3 cells
T1 sequence (looked up): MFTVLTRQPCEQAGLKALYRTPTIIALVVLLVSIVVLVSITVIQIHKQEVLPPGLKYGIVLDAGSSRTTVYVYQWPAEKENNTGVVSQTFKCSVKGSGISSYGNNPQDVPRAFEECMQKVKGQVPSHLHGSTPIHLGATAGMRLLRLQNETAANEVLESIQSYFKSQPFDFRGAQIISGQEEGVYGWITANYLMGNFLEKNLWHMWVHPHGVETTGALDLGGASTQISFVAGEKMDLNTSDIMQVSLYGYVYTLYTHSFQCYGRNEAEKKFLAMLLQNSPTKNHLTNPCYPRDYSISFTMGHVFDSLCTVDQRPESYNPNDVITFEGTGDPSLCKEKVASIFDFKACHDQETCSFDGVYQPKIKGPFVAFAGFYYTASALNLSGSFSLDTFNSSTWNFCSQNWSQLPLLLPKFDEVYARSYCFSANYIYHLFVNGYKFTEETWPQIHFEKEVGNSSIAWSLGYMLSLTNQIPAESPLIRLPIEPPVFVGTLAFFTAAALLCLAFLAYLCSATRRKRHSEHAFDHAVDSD

[2] = target: T1, human ecto-nucleoside triphosphate diphosphohydrolase-3 (NTPDase3) (human); assay: stable immune complex assay, flow cytometry on COS7-hENTPD3 cells, 2 h against 24 h (FIG. 50)
[3] = target: T1, human ecto-nucleoside triphosphate diphosphohydrolase-3 (NTPDase3) (human); assay: flow cytometry on COS7-hENTPD3 cells (FIG. 30)
[4] = target: T1, human ecto-nucleoside triphosphate diphosphohydrolase-3 (NTPDase3) (human); assay: flow cytometry on CHO-hENTPD3 cells, 20 min at 4 °C against 2 hours at 37 °C (FIG. 49)
[5] = target: T1, human ecto-nucleoside triphosphate diphosphohydrolase-3 (NTPDase3) (human); assay: humanized clone against parental chimeric clone; flow cytometry on hENTPD3 cells
[6] = target: T1, human ecto-nucleoside triphosphate diphosphohydrolase-3 (NTPDase3) (human); assay: flow cytometry on COS7-hENTPD3 cells (FIG. 48)
[7] = target: T1, human ecto-nucleoside triphosphate diphosphohydrolase-3 (NTPDase3) (human); assay: flow cytometry on COS7-hENTPD3 cells (FIG. 47)
[8] = target: T1, human ecto-nucleoside triphosphate diphosphohydrolase-3 (NTPDase3) (human); assay: flow cytometry on CHO-hENTPD3 cells (FIG. 49)

Measured: binding

B1: PBI #30af4 hIgG1 (antibody, V domains shown)
VH: QVQLQESGGGLIQPGGSLRLSCAASGFTSSSSDYAMSWVRQAPGKGLEWVSSISGSGVSTYYADSVKGRFTISRDNSKNTLYVQMTSLTAEDTAVYYCAKVVGYSVYDYYYHYALDVWGQGTTVTVSS
VL: QPVLTQPPSASGTPGQRVTISCSGSSSNIGSNTVNWYQQLPGTAPKLLIYSDNQRPSGVPDRFSGSKSGTSASLTISGLKTEDEAGYYCQSDDTSNVVFGGGTKVTVL
binds: [1] | [2] | [3]

B2: PBI #30af4 hIgG4 (antibody, V domains shown)
VH: QVQLQESGGGLIQPGGSLRLSCAASGFTSSSSDYAMSWVRQAPGKGLEWVSSISGSGVSTYYADSVKGRFTISRDNSKNTLYVQMTSLTAEDTAVYYCAKVVGYSVYDYYYHYALDVWGQGTTVTVSS
VL: QPVLTQPPSASGTPGQRVTISCSGSSSNIGSNTVNWYQQLPGTAPKLLIYSDNQRPSGVPDRFSGSKSGTSASLTISGLKTEDEAGYYCQSDDTSNVVFGGGTKVTVL
binds: [1] | [3]

B3: 38D5 hIgG1 (antibody, V domains shown)
VH: EQQLLESGGGLVQPGGSLRLSCAASGIDFNNYGISWVRQAPGKGLEWIAYKYPGFGIRNYANSVKGRFTISSDNSKNTVYLQMNSLRAEDTAVYFCARGARYRHDDYGALNLWGPGTLVTVSS
VL: DIQMTQSPSTLSASVGDRVTITCQASQSVTNLLAWYQQKPGKPPKLLIYGASNLESGVPSRFSGSGSGTEFTLTISSLQPDDFATYYCQSGYYSANTFGPGTKVDIK
not listed: [3]
binds: all other assays above

B4: 38D5 hIgG4 (antibody, V domains shown)
VH: EQQLLESGGGLVQPGGSLRLSCAASGIDFNNYGISWVRQAPGKGLEWIAYKYPGFGIRNYANSVKGRFTISSDNSKNTVYLQMNSLRAEDTAVYFCARGARYRHDDYGALNLWGPGTLVTVSS
VL: DIQMTQSPSTLSASVGDRVTITCQASQSVTNLLAWYQQKPGKPPKLLIYGASNLESGVPSRFSGSGSGTEFTLTISSLQPDDFATYYCQSGYYSANTFGPGTKVDIK
binds: [1]
